Here are results for 34 compounds from PubChem BioAssay AID1487 (National Center for Advancing Translational Sciences (NCATS), 2009).

“And” between values parts separate entries of the source, which are not always exact repeats. Equal entries are not always repeated. Some of the results follow. Shown are side measurements of this screen, not its main read-out; they come without a call. The list favours compounds with an active or inconclusive main result. Words in brackets tell the shape of the fitted curve; partial curves, single points and poor fits give uncertain potencies.

The assay can be described thus: qHTS Assay for Modulators of Lamin A Splicing. Conditions: HeLa LMNA splicing GFP/RFP minigene ratio, 48 h. A digest of the protocol: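 S3 HeLa stable clones carrying a lamin A-EGFP splicing minigene plus DsRed2 were seeded at 600 cells/well in Opti-MEM with 2% FBS, pin-dosed and incubated 48 h at 37°C. Acumen cytometry (488 nm) gave the GFP/RFP total-intensity ratio.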
On the technique in general: Quantitative high-throughput screening tests each substance at several concentrations.

Setting [1] is: measured here: GFP splicing reporter channel.
The mark [2] stands for this setting: measured here: RFP viability control channel.

For the compound `O=C(CC(=O)c1ccccc1)Nc1cccnc1`, the half-maximal activity concentration (AC50) – broadly, the concentration at which the activity in the assay is half-maximal – under setting [1] is 0.158 µM [falling, full curve, poor fit].
As to `CCCn1c(CCC(=O)O)ccc1-c1ccc(OC)cc1`, the concentration at half-maximal activity (AC50) is 15.8 µM [rising, partial curve, poor fit] under setting [1] and 10 µM [rising, partial curve, poor fit] under setting [2].
For the compound `O=C(NCc1cccc(Cl)c1)c1ccc2c(c1)nc1n2CCOC1`, the half-maximal activity concentration (AC50) runs as follows: under setting [1], 20 µM [rising, partial curve]; under setting [2], 35.5 µM [rising, single point].
`O=C(C1COc2cc(S(=O)(=O)Nc3ccc(Cl)cc3)ccc2O1)N1CCCC1` (configuration not stated): under setting [2], the AC50 was 0.00447 µM [falling, full curve, poor fit].
For `C/C(CCc1oc2ccc(Br)cc2c1-c1ccc(C)o1)=N/O`, the half-maximal activity concentration (AC50) reads like this: under setting [1], 12.6 µM [rising, partial curve, poor fit]; under setting [2], 20 µM [rising, partial curve].
As to `CC(NC(=O)CCC(=O)NC(C)C1COc2ccccc2O1)C1COc2ccccc2O1` (configuration not stated), the concentration at half-maximal activity (AC50) was 7.08 µM [rising, full curve, poor fit] under setting [1] and 11.2 µM [rising, partial curve] under setting [2].
As for `COc1ccc(C(=O)C2CCCN(S(=O)(=O)C(C)C)C2)c(C)c1` (configuration not stated), under setting [2], the AC50 is 1.58 µM [falling, partial curve].
Turning to `COc1ccccc1N1CCN(C(=O)CSc2nc(C)c(Cc3ccccc3)c(=O)[nH]2)CC1`, the half-maximal activity concentration (AC50) is 12.6 µM [rising, partial curve, poor fit] under setting [1] and 11.2 µM [rising, partial curve] under setting [2].
Turning to `COc1cc(C2C(C(=O)Nc3ccccc3)=C(C)Nc3nc(SCC(=O)c4ccc(C)cc4)nn32)ccc1O` (configuration not stated), the AC50 under setting [2] was 6.31 µM [falling, partial curve, poor fit].
With `O=C(CSc1nnnn1-c1ccc2c(c1)CCC2)Nc1ccc2c(c1)OCCO2`, the concentration at half-maximal activity (AC50) is 35.5 µM [rising, single point] under setting [1] and 31.6 µM [rising, single point] under setting [2].
As to `Cc1ccc(NC(=O)C2CCN(S(=O)(=O)c3c(C)noc3/C=C/c3ccco3)CC2)nc1`, under setting [2], the AC50 was 14.1 µM [rising, partial curve].
On to `CCCC(=O)O[C@]1(C(=O)COC(C)=O)CC[C@H]2[C@@H]3C[C@H](F)C4=CC(=O)C=C[C@]4(C)[C@@]3(F)[C@@H](O)C[C@@]21C`, for which, under setting [2], the AC50 was 0.562 µM [rising, full curve].
Turning to `COc1cccc(CN(C)CC(=O)NCc2ccccc2Cl)c1`, the AC50 under setting [1] is 0.0224 µM [falling, full curve, poor fit].
Same read-out and setting: the figure for `COCCn1c(=O)c(CCc2ccccc2)nc2cnc(Oc3ccc(OC)cc3)nc21` is 17.8 µM [falling, single point].
Consider `CCNNC(=O)C(O)(c1cccc(C)c1)c1cccc(C)c1`, for which the AC50 under setting [2] was 15.8 µM [rising, partial curve, poor fit].
`CCOC(=O)c1sc(N=NC2=C(O)CC(C)(C)CC2=O)c(C(=O)OCC)c1C`: the AC50 under setting [1] was 1 µM [rising, partial curve].
Same read-out and setting: the figure for `O=C(CCc1nnc(CCCCc2ccccc2)o1)NCc1cccc(F)c1` is 0.0224 µM [rising, full curve, poor fit]; for `CC(C)(C)c1ccc(C(=O)Nc2ccc3nc(SCC(=O)N4CCCC4)sc3c2)cc1` it is 10 µM [falling, partial curve, poor fit]; for `O=c1cc(CN2CCN(c3ccccc3)CC2)c2c(ccc3ccccc32)o1` it is 25.1 µM [rising, single point].
Regarding `O=C(O)CCCNC(=O)c1cccc(C(=O)NCCCC(=O)O)n1`, the AC50 under setting [2] is 11.2 µM [rising, partial curve].
In the case of `COc1ccc(NC(=O)CSc2nc(O)cc(=O)n2-c2ccccc2OC)cc1`, the AC50 under setting [1] is 0.178 µM [falling, full curve, poor fit] and the concentration at half-maximal activity (AC50) under setting [2] was 0.00447 µM [falling, full curve, poor fit].
As to `Cc1nc(Nc2ccc3c(c2)OCCO3)c2nnn(Cc3ccccc3Cl)c2n1`, the AC50 is, setting by setting: under setting [1], 35.5 µM [rising, single point]; under setting [2], 35.5 µM [rising, single point].
Take `CCc1ccc(S(=O)(=O)Nc2c(C)nn(C)c2C)cc1`: the half-maximal activity concentration (AC50) runs as follows: under setting [1], 10 µM [rising, partial curve]; under setting [2], 10 µM [rising, partial curve].
With `CCOC(=O)c1ccc(NC(=O)CSc2nc3cccnc3n2C)cc1`, the AC50 under setting [2] was 25.1 µM [rising, partial curve].
In the case of `c1ccc(CNc2nc(-c3ccoc3)nc3ccccc23)cc1`, the concentration at half-maximal activity (AC50) under setting [1] is 15.8 µM [falling, partial curve, poor fit] and the half-maximal activity concentration (AC50) under setting [2] was 20 µM [falling, partial curve, poor fit].
Regarding `CC(C)C(C(=O)NC1=NCCS1)c1ccc(Cl)cc1` (configuration not stated), under setting [2], the concentration at half-maximal activity (AC50) is 12.6 µM [rising, partial curve].
`COC(=O)/C(=N\Nc1ccccc1)Sc1nnc(-c2ccc(OC)cc2)n1C`: the AC50 under setting [2] is 35.5 µM [rising, single point].
On the same count and under the same terms, the figure for `COC(=O)C1=C(C)N(C)C(=S)NC1c1ccc(Cl)cc1` (configuration not stated) is 0.00447 µM [falling, full curve, poor fit]; for `COc1ccc(-c2nc3oc4cc(OC)ccc4c(=O)c3c(=O)n2Cc2ccco2)cc1` it is 35.5 µM [rising, single point]; for `CC(=O)N1CCc2c(sc(NC(=O)c3ccc([N+](=O)[O-])o3)c2C#N)C1` it is 22.4 µM [falling, single point].
Same read-out and setting: the result for `O=C1NC2c3ccccc3C(=O)N2c2c1cnn2-c1ccccc1` (configuration not stated) reads 17.8 µM [rising, single point].
`Cc1ccc(OCC(=O)NNc2c3ccccc3nc3ccccc23)cc1`: the AC50 reads like this: under setting [1], 35.5 µM [falling, single point]; under setting [2], 3.98 µM [rising, single point].
Take `CCOC(=O)/C=C/C(=O)Nc1nccs1`: the AC50 is 35.5 µM [falling, single point] under setting [1] and 35.5 µM [falling, single point] under setting [2].
With `OCCN1CCN(CCCN2c3ccccc3Sc3ccc(Cl)cc32)CC1`, the AC50 is 12.6 µM [falling, single point] and 17.8 µM [falling, partial curve] and 25.1 µM [falling, single point] under setting [1]; 3.16 µM [rising, single point] and 11.2 µM [falling, partial curve, poor fit] and 20 µM [falling, partial curve, poor fit] under setting [2].
